From PubChem BioAssay AID2685 (National Center for Advancing Translational Sciences (NCATS), 2010)
The other results are listed elsewhere or left out. These are further read-outs of the screen, such as a control signal, another cell line or another target. No call is given for them. Compounds called inactive in the main read-out are mostly missing here. Potencies come from curve fits of mixed quality, noted in brackets.

Assay: qHTS Assay for Lipid Storage Modulators in Drosophila S3 Cells;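 for cell number change: cells counted by Cell Tracker Red CMTPX staining in the red channel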
Settings: BODIPY lipid droplet fluorescence, 18-24 h; for cell number change: measured here: cell count max response, cells fed with added oleic acid
Outline: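 Laser-scanning cytometry quantifies lipid droplet accumulation (500–530 nm total intensity; droplet/cell object ratio) in oleic acid-fed (400 uM added) Drosophila S3 cells treated with a concentration series. 20 uM Triacsin C defined 100% inhibition.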

[1] = measured here: cell number channel AC50, cells fed with added oleic acid
[2] = measured here: lipid fluorescence (Fed channel) AC50, cells fed with added oleic acid

In the case of `CCOC(=O)c1nsnc1NCCSC(=N)N`, the cell number change was -11.1% and the AC50 [1] was 0.0731 µM [falling, full curve, poor fit].

Compound `Cc1ccc(C)c(S(=O)(=O)N2CCCCC2CCNC(=O)C(=O)NCc2cccnc2)c1` (centres undefined) has a cell number change of 24.3%.

`CCOC(=O)c1cc(C(=O)OCC)c(=O)[nH]c1N1CCCC1` showed a cell number change of -7.01%.

For `O=C(Cn1cnc2ccccc2c1=O)c1cccs1`, the cell number change was 7.06% and the AC50 [2] was 29.1 µM [rising, single point].

With `COc1ccc(OCCCNCCc2ccccc2)cc1` the cell number change was 89.5%, the AC50 [1] was 4.61 µM [falling, partial curve] and the AC50 [2] was 4.61 µM [falling, partial curve].

In the case of `CC(C)NC(=O)C1CCN(C2CCN(Cc3cn[nH]c3-c3ccccc3)CC2)CC1`, the cell number change was 16%, the AC50 [1] was 2.91 µM [falling, single point] and the AC50 [2] was 5.8 µM [falling, single point].

In the case of `CC1CCCC(C)N1C(=O)COC(=O)c1c[nH]c2ccccc12` (centres undefined), the cell number change was -10% and the AC50 [2] was 0.164 µM [falling, full curve].

For `COCc1nc(-c2cc(Br)ccc2OC)no1`, the cell number change was 84.3%, the AC50 [1] was 20.6 µM [rising, partial curve] and the AC50 [2] was 2.59 µM [rising, partial curve].

In the case of `O=C(COC(=O)Cc1ccc(Br)cc1)NC1CC1`, the cell number change was -5.29%, the AC50 [1] was 2.91 µM [falling, single point] and the AC50 [2] was 23.1 µM [rising, partial curve, poor fit].

Compound `CCN(Cc1ccncc1)C(=O)c1ccco1` has a cell number change of -8.84%.

With `CCCCn1c(CNC(C)=O)nc2ccccc21` the cell number change was -120%, the AC50 [1] was 25.9 µM [falling, partial curve] and the AC50 [2] was 20.6 µM [falling, partial curve].

For `CCOc1ccc(C(=O)Nc2cccc(-n3cnnn3)c2)cc1OCC`, the cell number change was -21.4%.

In the case of `Oc1c(C(c2ccccn2)N2CCC(Cc3ccccc3)CC2)cc(Cl)c2cccnc12` (centres undefined), the cell number change was -73.5%, the AC50 [1] was 20.6 µM [falling, single point] and the AC50 [2] was 18.4 µM [falling, single point].

With `CCOC(=O)c1ccc(N/N=C/c2cc(Br)cc([N+](=O)[O-])c2O)cc1` the cell number change was -9.56% and the AC50 [2] was 20.6 µM [falling, single point].

For `CC(=O)c1cccc(NC=C2C(=O)OC3(CCCCC3)OC2=O)c1`, the cell number change was 27.3% and the AC50 [2] was 32.6 µM [rising, single point].

With `CCOc1ccc(CCNC(=O)COC(=O)c2ccco2)cc1OCC` the cell number change was -64.9%, the AC50 [1] was 18.4 µM [falling, single point] and the AC50 [2] was 29.1 µM [falling, single point].

Work on `COc1ccc(NC(=O)CN(C)C(=O)CN2C(=O)NC3(CCCC3)C2=O)cc1` yielded a cell number change of -16.5%.

For `O=C(Nc1nc2ccsc2c(=O)s1)C1CCC1`, the cell number change was 18.6% and the AC50 [2] was 29.1 µM [rising, single point].

For `CCOC(=O)c1cccc(NC(=O)Cn2c(CC(=O)NC)nc3ccccc32)c1`, the cell number change was 7.31% and the AC50 [1] was 1.64 µM [rising, partial curve].

With `Cc1ccc(C)c(C(=O)COc2ccc(C)nc2[N+](=O)[O-])c1` the AC50 [2] was 3.66 µM [rising, full curve].

With `Cc1ccc(-n2nc3c(c2NC(=O)c2ccc(S(=O)(=O)N4CCOCC4)cc2)CSC3)c(C)c1` the cell number change was 153%, the AC50 [1] was 16.4 µM [rising, partial curve] and the AC50 [2] was 4.11 µM [falling, partial curve].

In the case of `COCCNCCOCCOc1ccc(Cl)c(C)c1`, the cell number change was -38%, the AC50 [1] was 0.058 µM [falling, full curve, poor fit] and the AC50 [2] was 23.1 µM [falling, partial curve].

For `O=C(NC(=S)NCc1ccccc1)c1cccc([N+](=O)[O-])c1`, the cell number change was 8.45% and the AC50 [2] was 18.4 µM [falling, single point].

For `CC(=O)c1sc2nc(C)c3c(c2c1N)CCCC3`, the cell number change was 5.96% and the AC50 [2] was 3.26 µM [rising, partial curve, poor fit].

With `COc1ccccc1C(=O)Nc1ccc(NC(=O)c2ccco2)cn1` the cell number change was -2.63% and the AC50 [2] was 0.501 µM [rising, single point].

With `O=C(O)c1ccccc1OC(=O)C12CC3CC(CC(C3)C1)C2` the cell number change was 11% and the AC50 [2] was 4.11 µM [rising, single point].

In the case of `O=C(NC(=S)NCCc1ccccn1)c1ccco1`, the AC50 [1] was 0.058 µM [falling, full curve].

For `Cc1ccc(NC(=O)c2cccnc2C(=O)O)nc1`, the cell number change was 11.7%.

For `COc1ccc(N(C(=O)c2snc(C(N)=O)c2N)C(C(=O)NCc2ccc(F)cc2)c2ccc(C)o2)c(OC)c1` (centres undefined), the cell number change was 18.5%, the AC50 [1] was 1.64 µM [rising, partial curve, poor fit] and the AC50 [2] was 6.51 µM [rising, single point].

In the case of `CCOC(CNC(=O)c1ccc2c(c1)ncn2-c1ccccc1OC)OCC`, the cell number change was 20.2% and the AC50 [2] was 9.2 µM [rising, partial curve].

`Cc1cccc(-c2noc(CNC(=O)c3ccc4c(c3)OCO4)n2)c1` showed a cell number change of -6.25%.

For `COc1ccc(OCCCC(=O)Nc2ccc(OC)c(S(=O)(=O)N3CCOCC3)c2)cc1`, the cell number change was 28.8% and the AC50 [2] was 29.1 µM [rising, single point].

With `COc1ccccc1C(=O)Nc1ccon1` the AC50 [2] was 6.51 µM [rising, single point].

For `COc1ccc(CCNC(=O)c2ccc(N3CCCC3=O)cc2)cc1`, the cell number change was 44%, the AC50 [1] was 29.1 µM [rising, single point] and the AC50 [2] was 29.1 µM [rising, single point].

In the case of `O=C(CCCCCN1C(=O)c2ccccc2C1=O)NCc1ccccn1`, the cell number change was -23% and the AC50 [2] was 0.082 µM [falling, full curve, poor fit].

With `COc1nc(NCC(C)C)nc(Oc2ccc(OCc3ccccc3)nn2)n1` the cell number change was -2.02% and the AC50 [2] was 2.91 µM [rising, single point].

With `Cc1ccc(S(=O)(=O)NC23CC4CC(CC(C4)C2)C3)cc1` the cell number change was -30.3% and the AC50 [1] was 18.4 µM [falling, single point].

`O=C(COC(=O)Cc1ccccc1[N+](=O)[O-])Nc1nnc(-c2ccccc2)o1` gave a cell number change of 15.3%.

In the case of `N#CC(C(=O)Nc1cccc(Cl)c1)=C1Nc2ccccc2N1`, the AC50 [2] was 2.06 µM [rising, full curve, poor fit].

In the case of `COc1ccc(C/C(C)=N/NC(=S)Nc2ccccc2F)cc1`, the cell number change was 38.8%.

For `CCC(C)[C@H](NC(=O)Nc1ccc(Oc2ccccc2)cc1)C(=O)O` (some centres undefined), the cell number change was -4.75% and the AC50 [2] was 1.84 µM [rising, partial curve, poor fit].

`CC1(C)NC(=O)N(CCCCOc2cccc(C(F)(F)F)c2)C1=O` gave a cell number change of -21.3%.

With `CC(C)C[C@H](NC(=O)c1nc[nH]c1C(=O)NCc1ccc(CNC(=O)OC(C)(C)C)cc1)C(=O)OC(C)(C)C` the cell number change was 44%, the AC50 [1] was 0.82 µM [rising, partial curve] and the AC50 [2] was 14.6 µM [falling, partial curve].

With `O=C(Cc1ccc(Br)cc1)N1CCN(c2ccc(F)cc2)CC1` the cell number change was -4.49% and the AC50 [2] was 0.0731 µM [rising, full curve].

For `Cc1ccccc1-n1nnnc1SCc1ncc(-c2ccccc2)o1`, the cell number change was 9.8%, the AC50 [1] was 0.92 µM [rising, full curve] and the AC50 [2] was 0.82 µM [rising, full curve, poor fit].

For `CC(=O)c1c(C)[nH]c(C(=O)Nc2cccc(C)n2)c1C`, the cell number change was -46%, the AC50 [1] was 18.4 µM [falling, partial curve] and the AC50 [2] was 0.366 µM [falling, partial curve].

`O=C(COC(=O)/C=C/c1ccccc1)NNC(=O)c1ccccc1F` showed a cell number change of 2.01%.

For `CCc1cccc(C)c1NC(=O)CCCn1c(=O)c2cccn2c2cccnc21`, the cell number change was -8.26% and the AC50 [2] was 0.731 µM [rising, single point].

In the case of `CCOC(=O)CSc1c(-c2cccs2)[nH]c2ccccc12`, the AC50 [2] was 29.1 µM [falling, single point].

`Cc1ccc(NC(=S)NN(C)c2cc(C)nc(C)n2)cc1` gave a cell number change of 16.7%.

`Cc1[nH]nc2ncc(C(=O)c3ccccc3O)cc12` showed a cell number change of 0.488%.

`C=CCn1c(SCC(=O)NCc2ccccc2)nnc1C1CCCCC1` showed a cell number change of -19.1%.

In the case of `Brc1ccc2[nH]c3nc(SCCN4CCOCC4)nnc3c2c1`, the AC50 [1] was 0.082 µM [rising, full curve, poor fit] and the AC50 [2] was 6.51 µM [rising, partial curve].

In the case of `CCCCCCCNC1=CC(=O)CC(c2ccccc2)C1` (centres undefined), the cell number change was -30% and the AC50 [2] was 29.1 µM [falling, single point].

For `Cc1ccccc1-c1noc(C23CC4CC(CC(C4)C2)C3)n1`, the cell number change was 12.4% and the AC50 [2] was 29.1 µM [falling, single point].

With `Cc1cc(Cl)ccc1OCC(=O)NNC(=O)c1cccnc1` the cell number change was -14.7% and the AC50 [2] was 32.6 µM [falling, single point].

For `CSc1nc(N)c2c(C)c(C)sc2n1`, the AC50 [1] was 6.51 µM [rising, single point].

With `Cc1nc2nc(C)c(CCC(=O)O)c(C)n2n1` the cell number change was 13.9% and the AC50 [2] was 5.8 µM [falling, full curve].

In the case of `c1nc(N2CCC3(CC2)OCCO3)c2c3c(sc2n1)CCCC3`, the cell number change was -11.6% and the AC50 [2] was 0.411 µM [falling, full curve].

With `COc1ccc(-n2c(Cn3c(=O)sc4ccccc43)nnc2SCC(N)=O)cc1` the cell number change was 2.6% and the AC50 [2] was 0.146 µM [falling, full curve, poor fit].

With `Cc1ccc(C(=O)CN(C(=O)c2ccc(Cl)c(Cl)c2)N2C(=O)C3C4C=CC(C4)C3C2=O)cc1` (centres undefined) the AC50 [1] was 5.8 µM [falling, single point] and the AC50 [2] was 6.51 µM [falling, single point].

With `CCN1C(=O)[C@H]2[C@@H](c3ccc(C)cc3)N3C(=O)N(c4ccc(C)cc4)C(=O)[C@@]3(Cc3ccccc3)[C@H]2C1=O` the cell number change was 13.9%.

In the case of `COc1ccc(Br)cc1/C=N/n1nnnc1N`, the cell number change was 9.91% and the AC50 [1] was 1.84 µM [falling, partial curve].
